In assay [1] the target is MAPKAP-K3 NUC 433-1003 (bait) (UniProt Q16644). As to the kind of experiment: yeast two-hybrid.
The target is the same in assay [2]. As to the kind of experiment: yeast two-hybrid; prey clone found with the bait of the row.
For assay [3], the target named is PRAK NUC 201-1104 K51M, T182D (bait) (UniProt Q8IW41). As to the kind of experiment: yeast two-hybrid.
Assay [4] has the same target. Briefly: yeast two-hybrid; prey clone found with the bait of the row.
The target of assay [5] is T1, NMI protein (UniProt Q13287).
T1 sequence (looked up): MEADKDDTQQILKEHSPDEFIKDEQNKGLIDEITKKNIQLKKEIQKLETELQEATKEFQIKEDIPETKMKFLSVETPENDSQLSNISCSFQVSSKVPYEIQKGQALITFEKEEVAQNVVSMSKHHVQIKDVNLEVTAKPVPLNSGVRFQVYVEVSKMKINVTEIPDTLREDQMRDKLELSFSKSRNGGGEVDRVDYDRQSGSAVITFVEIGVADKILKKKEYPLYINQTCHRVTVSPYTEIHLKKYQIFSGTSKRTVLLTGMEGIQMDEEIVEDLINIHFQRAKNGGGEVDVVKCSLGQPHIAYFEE
As to the kind of experiment: yeast two-hybrid.

By UniProt entry, the sequences of proteins in these tests, tags left out. Where a name states a change or a piece, a line headed by the entry shows the natural chain unless it says otherwise. Chains listed by the source or under a name are the forms on record and can include a tag or linker. Residues count along the entry.
PRAK NUC 201-1104 K51M, T182D (bait) (Q8IW41, form named): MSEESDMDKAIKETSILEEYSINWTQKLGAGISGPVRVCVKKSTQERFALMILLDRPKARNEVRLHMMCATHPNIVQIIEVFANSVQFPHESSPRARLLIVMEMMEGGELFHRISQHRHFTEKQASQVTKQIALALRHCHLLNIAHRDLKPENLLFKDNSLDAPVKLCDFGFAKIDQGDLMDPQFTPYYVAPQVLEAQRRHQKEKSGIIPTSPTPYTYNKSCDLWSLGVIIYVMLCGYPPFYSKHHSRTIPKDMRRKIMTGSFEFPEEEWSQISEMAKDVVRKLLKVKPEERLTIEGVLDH
UniProt Q96AA8: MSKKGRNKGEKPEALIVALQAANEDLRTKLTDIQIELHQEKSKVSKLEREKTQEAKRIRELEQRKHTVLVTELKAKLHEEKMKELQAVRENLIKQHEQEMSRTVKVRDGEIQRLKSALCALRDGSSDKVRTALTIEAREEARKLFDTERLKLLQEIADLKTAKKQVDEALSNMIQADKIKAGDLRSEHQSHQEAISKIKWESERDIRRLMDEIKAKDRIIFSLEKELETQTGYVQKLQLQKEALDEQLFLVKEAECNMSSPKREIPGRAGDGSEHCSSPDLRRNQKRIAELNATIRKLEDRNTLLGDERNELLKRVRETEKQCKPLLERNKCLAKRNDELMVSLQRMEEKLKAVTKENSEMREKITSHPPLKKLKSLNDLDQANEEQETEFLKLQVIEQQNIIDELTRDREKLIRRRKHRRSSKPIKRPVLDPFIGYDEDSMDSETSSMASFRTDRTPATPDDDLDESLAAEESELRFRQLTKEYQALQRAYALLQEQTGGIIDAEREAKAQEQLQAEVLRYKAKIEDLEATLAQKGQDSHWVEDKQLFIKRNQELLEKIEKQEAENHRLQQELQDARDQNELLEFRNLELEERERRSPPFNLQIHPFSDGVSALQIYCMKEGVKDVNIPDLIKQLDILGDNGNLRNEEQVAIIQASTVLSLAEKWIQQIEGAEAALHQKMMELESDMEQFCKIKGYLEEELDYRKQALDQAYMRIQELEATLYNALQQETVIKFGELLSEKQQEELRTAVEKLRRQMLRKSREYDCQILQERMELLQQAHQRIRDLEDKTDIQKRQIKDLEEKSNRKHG
UniProt Q9Y5Q3, residues 236-323: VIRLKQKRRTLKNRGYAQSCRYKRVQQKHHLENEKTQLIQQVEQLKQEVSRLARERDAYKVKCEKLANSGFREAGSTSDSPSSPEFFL
UniProt Q14203, residues 771-999: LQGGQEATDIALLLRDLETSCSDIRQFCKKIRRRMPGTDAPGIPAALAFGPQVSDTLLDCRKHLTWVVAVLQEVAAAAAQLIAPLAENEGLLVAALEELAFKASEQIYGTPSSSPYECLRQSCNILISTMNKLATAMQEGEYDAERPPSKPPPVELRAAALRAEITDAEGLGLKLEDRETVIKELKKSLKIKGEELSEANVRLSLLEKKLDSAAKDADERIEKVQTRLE
UniProt O60784, residues 236-492: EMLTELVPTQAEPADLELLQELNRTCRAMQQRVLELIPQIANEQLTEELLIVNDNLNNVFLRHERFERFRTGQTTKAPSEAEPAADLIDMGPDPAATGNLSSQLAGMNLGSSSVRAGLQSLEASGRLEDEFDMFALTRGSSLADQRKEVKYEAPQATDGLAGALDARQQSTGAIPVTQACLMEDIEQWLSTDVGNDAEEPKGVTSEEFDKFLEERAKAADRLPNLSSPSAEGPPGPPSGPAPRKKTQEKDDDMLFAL
UniProt O14964: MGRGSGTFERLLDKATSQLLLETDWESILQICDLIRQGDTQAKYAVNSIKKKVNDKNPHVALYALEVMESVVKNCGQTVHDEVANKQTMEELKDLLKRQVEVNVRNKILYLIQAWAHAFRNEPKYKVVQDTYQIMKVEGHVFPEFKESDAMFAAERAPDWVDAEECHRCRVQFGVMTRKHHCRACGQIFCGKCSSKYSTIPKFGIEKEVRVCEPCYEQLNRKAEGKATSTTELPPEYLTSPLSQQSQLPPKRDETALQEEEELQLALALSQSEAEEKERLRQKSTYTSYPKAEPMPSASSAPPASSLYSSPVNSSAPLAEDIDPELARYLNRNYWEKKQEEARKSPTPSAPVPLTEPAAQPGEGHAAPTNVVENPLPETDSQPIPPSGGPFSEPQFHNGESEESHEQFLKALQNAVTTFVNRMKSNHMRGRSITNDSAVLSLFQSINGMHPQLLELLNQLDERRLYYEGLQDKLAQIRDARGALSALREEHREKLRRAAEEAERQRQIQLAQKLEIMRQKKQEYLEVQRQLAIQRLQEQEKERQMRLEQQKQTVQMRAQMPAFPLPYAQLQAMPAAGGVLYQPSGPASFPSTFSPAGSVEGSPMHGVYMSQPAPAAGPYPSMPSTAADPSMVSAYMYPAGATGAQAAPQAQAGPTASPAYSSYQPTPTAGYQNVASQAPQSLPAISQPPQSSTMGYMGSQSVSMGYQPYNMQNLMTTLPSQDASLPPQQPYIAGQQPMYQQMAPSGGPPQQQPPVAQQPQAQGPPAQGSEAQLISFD
UniProt P04792, residues 73-205: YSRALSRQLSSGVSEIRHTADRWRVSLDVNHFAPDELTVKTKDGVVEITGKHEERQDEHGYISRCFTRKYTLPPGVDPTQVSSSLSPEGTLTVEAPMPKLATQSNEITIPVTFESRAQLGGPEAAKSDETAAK
UniProt P61244: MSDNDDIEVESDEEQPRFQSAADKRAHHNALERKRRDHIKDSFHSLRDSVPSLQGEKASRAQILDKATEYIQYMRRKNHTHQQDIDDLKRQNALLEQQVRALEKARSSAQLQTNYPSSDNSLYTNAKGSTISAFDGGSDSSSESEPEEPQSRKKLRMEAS
UniProt P62258: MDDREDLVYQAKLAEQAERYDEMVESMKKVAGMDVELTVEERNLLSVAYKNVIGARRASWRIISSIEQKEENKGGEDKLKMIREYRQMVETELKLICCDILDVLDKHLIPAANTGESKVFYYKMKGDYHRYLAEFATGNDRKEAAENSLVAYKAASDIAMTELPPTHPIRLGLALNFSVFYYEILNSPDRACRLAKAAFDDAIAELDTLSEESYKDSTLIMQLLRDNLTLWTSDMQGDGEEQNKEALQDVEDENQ

In assay [6] the target is T2, MAPKAP-K3 NUC 742-1003 (bait) (UniProt Q16644).
T2 sequence (looked up): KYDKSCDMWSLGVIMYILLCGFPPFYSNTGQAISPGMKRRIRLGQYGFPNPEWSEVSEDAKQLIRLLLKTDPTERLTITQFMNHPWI
Briefly: yeast two-hybrid.

Assay [7] deals with T2, MAPKAP-K3 NUC 742-1003 (bait). As to the kind of experiment: yeast two-hybrid; prey clone found with the bait of the row.
For assay [8], the target named is KIAA0555 (protein of interest in a two-hybrid search, construct not stated) (UniProt Q96AA8). Briefly: yeast two-hybrid.

These are yes or no findings as the source states them, for the method shown. Some entries that bind do so weakly or less than the wild type.

On to “KRML NUC 781-1045 (prey) (from UniProt Q9Y5Q3 236-323)”, for which the binding entry in assay [1] and in assay [2] was “binds” throughout. “Dynactin amino acids 771-999 (prey) (from UniProt Q14203 771-999)”: the binding result in assay [3] and in assay [4] was “binds” in each case. Regarding “ABP620 NUC 11355-12486 (prey) (from UniProt Q9UPN3 3719-4095)”, the binding entry in assay [3] and in assay [4] was “binds” each time. “TOM1 NUC 751-1522 (prey) (from UniProt O60784 236-492)”: the binding entry in assay [1] and in assay [2] was “binds” each time. On to “HRS (construct not stated) (from UniProt O14964 1-777)”, for which the binding entry in assay [5] is “binds”. For “Hepatocyte Growth Factor-Regulated Tyrosine Kinase (HRS) NUC 1521-2073 (prey) (from UniProt O14964 482-665)”, the binding result in assay [1] and in assay [2] was “binds” each time. For the substance “HSP27 amino acids 73-206 (prey) (from UniProt P04792 73-205)”, the binding entry in assay [6] and in assay [7] was “binds” in each case. As for “MAX amino acids 45-149 (prey) (from UniProt P61244 45-149)”, the binding result in assay [1] and in assay [2] was “binds” each time. On to “14-3-3 epsilon signal transduction protein (from UniProt P62258 1-255)”, for which, in assay [8], the binding result is on record as “binds”.

Values taken from patent US20020102606A1.
